± gives the standard deviation of the averaged measurements. Some of the results follow. Repeats are few or missing, and single values can be far off.
System: RAW 264.7 macrophages infected with S. aureus JE2-lux
Test: host macrophage viability (CellTiter-Fluor) relative to DMSO vehicle; higher = more viable host cells
Conditions: 10 µM; treatment time 4 h; gentamicin 50 µg/ml

SMILES | host macrophage viability [%]
CCS(=O)(=O)N1CCCC(C(=O)NCC2CCCO2)C1 (stereo unspecified) | 98.1
CCS(=O)(=O)N1CCC(Nc2nc3c(c(=O)[nH]2)CCCC3)CC1 | 112
Cc1ccc(NC(=O)CSc2nc3cc(C)cc(C)c3cc2C#N)c(Br)c1 | 128
CCn1c(C)cc2cc(NC(=O)c3cc(C4CC4)nn3C)ccc21 | 114
COc1cc(C(=O)NNc2nc3c(OC)ccc(OC)c3s2)cc(OC)c1OC | 107 ± 4.3
O=C(CSc1nc2sc3c(c2c(=O)n1Cc1ccco1)CCC3)Nc1nccs1 | 115
O=C(OCCNC1=C(Cl)C(=O)c2ccccc2C1=O)c1ccccc1 | 101
Cc1cc2oc(=O)cc(-c3cc4ccccc4o3)c2cc1OC(=O)C1CC1 | 131
CCN1CCN(C(=O)C2CCN(C3=NS(=O)(=O)C(c4ccc(OC)cc4)=C3C)CC2)CC1 | 101
COc1ccc(CCNc2ncnc3oc4c(c23)CCCC4)c(OC)c1 | 109
CC(=O)c1ccc(OCC(O)CN2CCc3ccccc3C2)cc1 (stereo unspecified) | 116
N#Cc1c(NC(=O)C2CC(=O)NN2Cc2ccccc2)sc2c1CCCC2 (stereo unspecified) | 116
Cc1nnc2sc(SCC(=O)Nc3ccc(Cl)cc3)nn2c1=O | 113
O=C(Oc1ccc2oc(=O)cc(-c3cc4ccccc4o3)c2c1)c1cccs1 | 113
O=C(c1ccc2c(c1)OCO2)N1CCN(c2ccc(Nc3cccnc3)nn2)CC1 | 109
Cc1cc(=O)[nH]c(SCc2ccc(C(=O)Nc3nccs3)cc2)n1 | 111
O=C(CSC1=NS(=O)(=O)c2cc(F)ccc2N1)NCc1ccccc1Cl | 107
CCc1nnc2ccc(C(=O)N3CCN(c4ccccn4)CC3)cn12 | 123
Cn1c2ccccc2c2nnc(SCC(=O)Nc3ccc(NC(=O)C4CC4)cc3)nc21 | 110
CCCCc1ccc(NC(=O)/C=C2\SC(=O)NC2=O)cc1 | 121
CCOC(=O)c1c(SC(CC)C(=O)OC)nc(=O)[nH]c1C (stereo unspecified) | 121
CCOC(=O)N1CCN(C(=O)Cn2c(=O)n(-c3ccccc3)c(=O)c3oc4ccccc4c32)CC1 | 121

SMILES | host macrophage viability [%]
N#CC1=C(SCC(=O)N(c2ccccc2)c2ccccc2)NC2=C(C(=O)CCC2)C1c1ccco1 (stereo unspecified) | 115
C=CCOc1ccc(C2NC(=O)c3c(sc4c3CCCC4)N2)cc1OC (stereo unspecified) | 110
O=C(Cc1cc(=O)[nH]c(=O)[nH]1)NCCC(c1ccccc1)c1ccccc1 | 94.9
Cc1nc(Cl)c2c(C)c(C)n(-c3ccccc3)c2n1 | 104
CC(C)c1ccc2nc(SCC(=O)NCCc3c[nH]c4ccccc34)c(C#N)cc2c1 | 127
COc1ccc(-c2ccc(=O)n(C[C@H](C)NC(=O)c3cnn4cccnc34)n2)cc1 | 112
Cc1nc2cc(NC(=O)c3ccc(S(=O)(=O)N4CCC(C)CC4)cc3)ccc2s1 | 120
CN(C(=O)c1cccc(NC(=O)C2OCOc3ccccc32)c1)C1CCCCC1 (stereo unspecified) | 102
O=C(Cn1c(=O)n(CCC(=O)NC2CCCC2)c(=O)c2ccccc21)NCCC1=CCCCC1 | 116
O=C(Nc1ccc(F)c(F)c1)c1ccc2nc[nH]c2c1 | 120
O=C(COc1ccc(Cl)cc1)NCCSc1ncc(-c2ccc(F)cc2)[nH]1 | 116
O=C(CSc1nnc2ccc(-c3cccnc3)nn12)NCc1ccco1 | 112
COC(=O)Cn1/c(=N/C(=O)COc2ccc(Cl)cc2)sc2cc(NC(C)=O)ccc21 | 119
CCN(CC)S(=O)(=O)c1ccc(C(=O)Oc2cc(C)[nH]c(=O)c2[N+](=O)[O-])cc1 | 119
Fc1ccccc1Nc1nc(=S)[nH]c2ccccc12 | 119
COc1cccc(C(=O)NCC(=O)N/N=C/c2ccc(Cl)cc2)c1 | 131
Cc1ccc(NC(=O)CSC2CC(=O)N(c3ccc(C)cc3)C2=O)cc1 (stereo unspecified) | 130
COCCn1c2ccccc2n2c(=O)n(Cc3cscn3)nc12 | 132
COc1cccc(OCC(=O)N2CCC3(CC2)CC(=O)c2ccccc2O3)c1 | 113
Cc1ccc(C)c(S(=O)(=O)c2cnc(SCC(=O)Nc3ccc(F)cc3F)[nH]c2=O)c1 | 133
CSc1ncc(C(=O)NC(c2ccccc2)c2cccnc2)cn1 (stereo unspecified) | 113
Cc1ccc(-c2nc(C(N)=O)c3[nH]c(=O)n(C(C)C)c3n2)cc1C | 112

An excerpt from above in order of count of non-hydrogen atoms, descending.
SMILES | host macrophage viability [%]
CCOC(=O)N1CCN(C(=O)Cn2c(=O)n(-c3ccccc3)c(=O)c3oc4ccccc4c32)CC1 | 121
O=C(Cn1c(=O)n(CCC(=O)NC2CCCC2)c(=O)c2ccccc21)NCCC1=CCCCC1 | 116
CCN1CCN(C(=O)C2CCN(C3=NS(=O)(=O)C(c4ccc(OC)cc4)=C3C)CC2)CC1 | 101
Cc1ccc(C)c(S(=O)(=O)c2cnc(SCC(=O)Nc3ccc(F)cc3F)[nH]c2=O)c1 | 133
COC(=O)Cn1/c(=N/C(=O)COc2ccc(Cl)cc2)sc2cc(NC(C)=O)ccc21 | 119
O=C(CSc1nc2sc3c(c2c(=O)n1Cc1ccco1)CCC3)Nc1nccs1 | 115
COc1cccc(OCC(=O)N2CCC3(CC2)CC(=O)c2ccccc2O3)c1 | 113
O=C(COc1ccc(Cl)cc1)NCCSc1ncc(-c2ccc(F)cc2)[nH]1 | 116
Cc1ccc(NC(=O)CSC2CC(=O)N(c3ccc(C)cc3)C2=O)cc1 (stereo unspecified) | 130
CCc1nnc2ccc(C(=O)N3CCN(c4ccccn4)CC3)cn12 | 123
Cc1cc(=O)[nH]c(SCc2ccc(C(=O)Nc3nccs3)cc2)n1 | 111
Cc1nnc2sc(SCC(=O)Nc3ccc(Cl)cc3)nn2c1=O | 113
CCCCc1ccc(NC(=O)/C=C2\SC(=O)NC2=O)cc1 | 121
CCS(=O)(=O)N1CCCC(C(=O)NCC2CCCO2)C1 (stereo unspecified) | 98.1
Cc1nc(Cl)c2c(C)c(C)n(-c3ccccc3)c2n1 | 104

Look-ups from above:
`Cc1ccc(C)c(S(=O)(=O)c2cnc(SCC(=O)Nc3ccc(F)cc3F)[nH]c2=O)c1` | host macrophage viability [%]: 133
`Cc1nc2cc(NC(=O)c3ccc(S(=O)(=O)N4CCC(C)CC4)cc3)ccc2s1` | host macrophage viability [%]: 120

(continued)

SMILES | host macrophage viability [%]
O=C(CN(C(=O)C(=O)Nc1ccc2c(c1)OCCO2)N1CCOCC1)NC1CCCC1 | 103
COc1ccc(NC(c2ccccn2)c2oc(CO)cc(=O)c2O)cc1 (stereo unspecified) | 131
COc1ccc2c(c1)c(=O)c(Br)c(C)n2CC(=O)Nc1cccc(C)c1 | 107
Cc1cc(O)c(C(c2ccncc2)N2CCC(C)CC2)c(=O)n1Cc1ccco1 (stereo unspecified) | 111
O=C(NCCc1ccc(Cl)cc1)C(=O)Nc1ccon1 | 100
CC(C)(C)NC(=O)C(c1cccnc1)N(C(=O)c1csnn1)c1ccc(F)cc1 (stereo unspecified) | 110
CC1CCN(C(=O)c2ccc(NC(=O)C(=O)Nc3ccc(F)c(Cl)c3)cc2)CC1 | 149
CC(C)c1ccc(Cn2c(=O)c3sccc3n3c(=S)[nH]nc23)cc1 | 81.1
Cc1ccc(-n2ncc(C(=O)NCCN3CCc4ccccc4C3)c2C2CCNCC2)c(C)c1 | 120
O=C(/C=C\c1ccc([N+](=O)[O-])cc1)N(Cc1cccnc1)c1nc2c(F)cc(F)cc2s1 | 110
COc1ccc(Cl)cc1Nc1ncnc2sc(C)c(S(=O)(=O)N3CCCCC3)c12 | 127
O=C(NCC1COc2ccccc2O1)c1cc2c(=O)oc3ccccc3c2s1 (stereo unspecified) | 129
Cc1ccc(C)c2sc(N(Cc3cccnc3)C(=O)Cc3ccc(F)cc3)nc12 | 105
Cc1csc(NC(=O)CSc2nnc(-c3ccccn3)n2-c2ccc(Cl)cc2)n1 | 117
O=C(NCc1ccccc1)NC1(C(=O)NCc2ccc3c(c2)OCO3)CCCCC1 | 115
Cc1nn(C(C)CC(=O)NC(c2ccccc2)c2cccnc2)c(C)c1C (stereo unspecified) | 103
Nc1ncnc(Sc2nc3ccccc3[nH]2)c1[N+](=O)[O-] | 107
O=C(CSc1nc2ccccc2cc1CC1CCCC1)NCc1ccccc1 | 111
CCOc1ccccc1Nc1nc(-c2nnc(-c3ccc(C)cc3)o2)nc2ccccc12 | 93.6
COc1ccc(N2C(=O)c3nccnc3C2=O)cc1OC | 112
Cc1sc(C)c(S(=O)(=O)N2CCc3ccccc3C2)c1-c1cc(C(F)(F)F)on1 | 93.9
COc1ccc(NC(=O)Cn2cnc3c(cnn3-c3ccccc3)c2=O)cc1 | 102

From the supplement of paper PMC12578635
